PubChem BioAssay AID504808 | Drosophila RNAi Screening Center, 2011
Assay: 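Chromatin factors that keep E2F targets switched off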 (primary screen). Cell system: Drosophila S2 cells. Reagent: long dsRNA against Drosophila genes. Detection: 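Firefly luciferase driven by E2F sites, normalised to Renilla luciferase on the same minimal promoter, measured by plate reader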. Direction: E2F firefly: higher = more E2F reporter activity; Renilla normaliser: higher = more normaliser reporter signal. Hit rule: 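Called active if the normalised E2F reporter went up by over 50%; the cutoff is arbitrary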.
The screen tested about 21,000 reagents; this is a random part of those with a known target gene and a result. Of all reagents, 18 (0.084%) got an active call. 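Raw counts without plate normalisation, one of two replicates; the ratio scores behind the calls were not deposited.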 A plus sign joins genes that one reagent is predicted to hit. Not given: the amount of reagent, the time to read-out.

gene knocked down	dsRNA	E2F firefly, rep 1	Renilla normaliser, rep 1	Call
CG9577	DRSC20693	1.45e5	6412	inactive
CG13272	DRSC02249	98903	4860	inactive
CG18661	DRSC02690	1.70e5	5362	inactive
Bro	DRSC08149	95875	4439	inactive
CG8563	DRSC10996	84512	3570	inactive
kl-5 (retired record)	DRSC20707	1.42e5	6552	inactive
kl-5 (retired record)	DRSC20736	83190	3179	inactive
kl-5 (retired record)	DRSC20773	79121	2743	inactive
kl-5 (retired record)	DRSC21161	73644	8293	inactive
CG3918	DRSC18331	5019	872	inactive
Vang	DRSC07570	1.51e5	4761	inactive
l(2)34Fc	DRSC01910	1.10e5	4479	inactive
rtv	DRSC19541	7191	788	inactive
rhi	DRSC05996	1.32e5	4686	inactive
mirr	DRSC11369	1.53e5	7039	inactive
betaCOP	DRSC20312	1.08e5	6437	inactive
Bub3	DRSC14168	1661	1076	inactive
CG3358	DRSC04992	78634	3952	inactive
Snp	DRSC04524	1.02e5	4475	inactive
Vps53	DRSC00595	82492	3468	inactive
CG9630	DRSC16527	73220	3893	inactive
Tsp42En	DRSC06185	1.51e5	5097	inactive
RNaseZ	DRSC06845	1.56e5	4990	inactive
CG10943	DRSC09805	1.08e5	3908	inactive
His1:CG33816 + His1:CG33828 + His1:CG33819 + 21 more	DRSC21266	1.33e5	6574	inactive
hmw	DRSC16277	71363	3159	inactive
H2.0	DRSC03340	1.68e5	5579	inactive
CG7974	DRSC08607	68323	3607	inactive
Rlip	DRSC16828	1.31e5	6395	inactive
ninaD	DRSC02886	95019	4342	inactive

Part of the list above, showing only “E2F firefly, rep 1”.
CG18661 [DRSC02690] = 1.70e5
Bro [DRSC08149] = 95875
CG8563 [DRSC10996] = 84512
kl-5 (retired record) [DRSC20707] = 1.42e5
kl-5 (retired record) [DRSC20736] = 83190
kl-5 (retired record) [DRSC20773] = 79121
kl-5 (retired record) [DRSC21161] = 73644
CG3918 [DRSC18331] = 5019

The results go on:
gene knocked down	dsRNA	E2F firefly, rep 1	Renilla normaliser, rep 1	Call
WRNexo	DRSC16278	71186	3564	inactive
Mal-A3	DRSC07462	1.39e5	4876	inactive
disco	DRSC20323	1.48e5	5732	inactive
CG13344	DRSC06378	2851	221	inactive
Sema2a	DRSC07551	74622	4204	inactive
Mst84Dd	DRSC12600	1.28e5	5712	inactive
CG13800 (retired record)	DRSC08334	98998	3964	inactive
CG14609	DRSC12553	1.17e5	7303	inactive
pck	DRSC18565	1720	976	inactive
whe	DRSC20537	1.45e5	7074	inactive
Tim13	DRSC09848	1.21e5	7732	inactive
CG5958	DRSC02915	1.37e5	5609	inactive
Etl1	DRSC02911	89464	3831	inactive
eEF1alpha1	DRSC07421	1.05e5	4620	inactive
Atxn7	DRSC00726	84797	3405	inactive
VhaSFD	DRSC03471	71374	2955	inactive
CG6013	DRSC15947	64609	3724	inactive
Sp1	DRSC17622	80173	2245	inactive
Sp1	DRSC18717	1.19e5	5447	inactive
klar	DRSC08718	84568	3637	inactive
CG31482	DRSC12582	1.38e5	7265	inactive
CG7025	DRSC03002	1.55e5	5090	inactive
CG17666	DRSC10276	1.36e5	7781	inactive
CG32284	DRSC08025	1.20e5	3804	inactive
cid	DRSC05429	1.43e5	5963	inactive
cid	DRSC07592	1.01e5	4544	inactive
RhoL	DRSC16824	66123	3542	inactive
